PubChem BioAssay AID1259405, NCATS | 2018
Purpose: 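Silenced genes that increase secreted GFP made by CHO cells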 (primary screen). Cells: Chinese hamster CHO-K1 ovary cells with stable secreted eGFP expression. Reagents: single siRNA against mouse genes, 0.8 pmol siRNA per well (2 µl of 400 nM stock). Duration: 3 days. Read-out: 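Per-well intracellular GFP measured by laser scanning cytometry, plus viability from ATP luminescence, each relative to plate median of non-targeting control wells, in %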. Reading the numbers: GFP, % of control: higher = more GFP per well, higher productivity; viability (ATP), % of control: higher = more viable cells (more ATP). Hit rule: 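Called active when intracellular GFP, relative to negative control, is at or above 120%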.
The deposit covers about 50,000 reagents; shown is a part drawn at random. About 4,000 of all reagents (8%) count as active. 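Mouse siRNA library applied to hamster cells; one well for each siRNA.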 Reagents against one gene are numbered here.

Gene	reagent no.	GFP, % of control	viability (ATP), % of control	outcome
Defb11	1	82.2	62.3	inactive
Defb11	2	83	102	inactive
Defb11	3	36.2	48.1	inactive
Rnpepl1	1	101	87.5	inactive
Rnpepl1	2	112	66.1	inactive
Rnpepl1	3	73.9	69.2	inactive
Plekhg6	1	137	64.5	active
Plekhg6	2	98.7	78.8	inactive
Plekhg6	3	61.1	67	inactive
Crtap	1	58.8	68.5	inactive
Crtap	2	96.8	97	inactive
Crtap	3	80.4	84.4	inactive
Ppp1r14b	1	150	66.6	active
Ppp1r14b	2	76.6	77.2	inactive
Ppp1r14b	3	80.4	67.5	inactive
Depdc7	1	72.2	68.5	inactive
Depdc7	2	110	114	inactive
Depdc7	3	111	80.4	inactive
Zic4	1	69.5	62.5	inactive
Zic4	2	121	98.8	active
Lcp2	1	44.3	69.3	inactive
Lcp2	2	77.9	82.5	inactive
Lcp2	3	87.2	108	inactive
Actr2	1	68.3	61.1	inactive
Actr2	2	66	74	inactive
Actr2	3	87	72.4	inactive
Tenm3	1	67.3	64.5	inactive
Tenm3	2	44.7	95	inactive
Tenm3	3	39	89.9	inactive
Hey1	1	54.7	34.1	inactive
Hey1	2	77.8	63.2	inactive
Gap43	1	44.8	49.4	inactive
Gap43	2	107	75.1	inactive
Gap43	3	86.8	83.1	inactive
